Test results published in article PMC11111408, “Concurrent inhibition of oncogenic and wild-type RAS-GTP for cancer therapy” (Nature, 2024).
“And” between values parts separate entries of the source, which are not always exact repeats. Identical values can stand only once. Further values from the same series stand in other lists.

Test: Body weight and tolerability of tumour bearing mice

With `CCn1c(-c2cc(N3CCN(C4CC4)CC3)cnc2[C@H](C)OC)c2c3cc(ccc31)-c1csc(n1)C[C@H](NC(=O)[C@H]1[C@@H]3COC[C@@H]31)C(=O)N1CCC[C@H](N1)C(=O)OCC(C)(C)C2` [RMC-7977] the “% Body Weight Change” value (LUN352 model, RMC-7977 10 mg/kg po qd, day 3 on study, individual animals, 10 mg/kg) was 1.93% and 4.88% and 2.99%, the “% Body Weight Change” value (LUN352 model, RMC-7977 10 mg/kg po qd, day 7 on study, individual animals, 10 mg/kg) was 0.48% and 2.44% and 0.00% and the “% Body Weight Change” value (LUN352 model, RMC-7977 10 mg/kg po qd, day 11 on study, individual animals, 10 mg/kg) was -0.97% and 0.00% and 1.00%. For the same compound, the “% Body Weight Change” value (LUN352 model, RMC-7977 10 mg/kg po qd, day 15 on study, individual animals, 10 mg/kg) was 0.48% and 0.00% and 0.50%, the “% Body Weight Change” value (LUN352 model, RMC-7977 10 mg/kg po qd, day 18 on study, individual animals, 10 mg/kg) was 2.90% and 2.44% and 2.99% and the “% Body Weight Change” value (LUN352 model, RMC-7977 10 mg/kg po qd, day 22 on study, individual animals, 10 mg/kg) was 2.42% and 5.85% and 1.99%. For the same compound, the “% Body Weight Change” value (LUN352 model, RMC-7977 10 mg/kg po qd, day 25 on study, individual animals, 10 mg/kg) was -0.48% and 2.44% and -1.49%, the “% Body Weight Change” value (LUN352 model, RMC-7977 10 mg/kg po qd, day 29 on study, individual animals, 10 mg/kg) was -5.31% and 0.00% and -3.98% and the “% Body Weight Change” value (MIA PaCa-2 tumor bearing BALB/c nude mice, 10 mg/kg po qd, day 0, individual animals) was 0%. For the same compound, the “% Body Weight Change” value (MIA PaCa-2 tumor bearing BALB/c nude mice, 10 mg/kg po qd, day 3, individual animals, 10 mg/kg) was 0.6579% and 4.056% and 1.536% and 0.7654% and -2.692% and 1.247% and -1.541% and 0.5825% and 4.064% and 0.1224%, the “% Body Weight Change” value (MIA PaCa-2 tumor bearing BALB/c nude mice, 10 mg/kg po qd, day 7, individual animals, 10 mg/kg) was -1.692% and 3.403% and 3.512% and -0.03827% and -4.078% and -0.8018% and -1.4531% and -1.1285% and -0.2463% and -1.469% and the “% Body Weight Change” value (MIA PaCa-2 tumor bearing BALB/c nude mice, 10 mg/kg po qd, day 10, individual animals, 10 mg/kg) was -4.699% and -0.5594% and -0.2634% and -0.7654% and -6.651% and -2.762% and -2.158% and -3.677% and -2.956% and -5.1%. For the same compound, the “% Body Weight Change” value (MIA PaCa-2 tumor bearing BALB/c nude mice, 10 mg/kg po qd, day 14, individual animals, 10 mg/kg) was -2.256% and 3.17% and 2.239% and 0.995% and -4.632% and -0.08909% and -4.624% and 0.7645% and -2.791% and -0.9384%, the “% Body Weight Change” value (MIA PaCa-2 tumor bearing BALB/c nude mice, 10 mg/kg po qd, day 17, individual animals, 10 mg/kg) was -4.699% and 4.336% and 0.2634% and 1.339% and -7.403% and -0.7127% and -4.535% and -0.9829% and -2.915% and -3.101% and the “% Body Weight Change” value (MIA PaCa-2 tumor bearing BALB/c nude mice, 10 mg/kg po qd, day 21, individual animals, 10 mg/kg) was -0.7519% and 6.9% and 2.809% and 0.4975% and -6.73% and -0.2227% and -2.994% and -1.529% and -0.9442% and -2.978%. For the same compound, the “% Body Weight Change” value (MIA PaCa-2 tumor bearing BALB/c nude mice, 10 mg/kg po qd, day 24, individual animals, 10 mg/kg) was -2.726% and -3.45% and 1.536% and 0.9568% and -7.799% and -2.539% and 6.649% and -0.8009% and -10.7143% and -5.59%, the “% Body Weight Change” value (MIA PaCa-2 tumor bearing BALB/c nude mice, 10 mg/kg po qd, day 28, individual animals, 10 mg/kg) was -2.068% and 3.403% and 3.161% and 1.339% and -6.334% and 0.5791% and -1.145% and -0.7645% and 0.2463% and -0.4488% and the “% Body Weight Change” value (NCI-H441 tumor bearing BALB/c nude mice, 10 mg/kg po qd, day 0, individual animals) was 0%. For the same compound, the “% Body Weight Change” value (NCI-H2009, RMC-7977 10 mg/kg po qd, day 0 on study, individual animals) was 0.00%, the “% Body Weight Change” value (NCI-H2009, RMC-7977 10 mg/kg po qd, day 3 on study, individual animals, 10 mg/kg) was 2.42% and -3.77% and -4.57% and -3.57% and -1.34% and -6.11% and -2.27% and -2.71% and -7.69% and -7.29% and the “% Body Weight Change” value (NCI-H2009, RMC-7977 10 mg/kg po qd, day 7 on study, individual animals, 10 mg/kg) was 5.31% and -3.77% and -1.37% and -4.02% and -2.68% and -5.24% and -0.45% and -4.52% and -8.97% and -5.26%. The “% Body Weight Change” value (NCI-H2009, RMC-7977 10 mg/kg po qd, day 10 on study, individual animals, 10 mg/kg) was 5.31% and -1.89% and -5.48% and -3.13% and -3.57% and -5.24% and -4.55% and -2.71% and -7.26% and -7.29%, the “% Body Weight Change” value (NCI-H2009, RMC-7977 10 mg/kg po qd, day 14 on study, individual animals, 10 mg/kg) was 3.38% and -1.42% and -0.91% and -0.45% and 0.45% and -3.06% and -3.18% and -1.36% and -1.71% and -6.88% and the “% Body Weight Change” value (NCI-H2009, RMC-7977 10 mg/kg po qd, day 17 on study, individual animals, 10 mg/kg) was 2.90% and 1.42% and 0.46% and 0.00% (2×) and -0.45% (2×) and -3.93% and 1.81% and -5.67%. For the same compound, the “% Body Weight Change” value (NCI-H2009, RMC-7977 10 mg/kg po qd, day 21 on study, individual animals, 10 mg/kg) was 4.35% and 0.94% and -1.37% and 2.23% and 0.45% and -2.62% and 0.00% and 0.90% and 0.43% and -3.64%, the “% Body Weight Change” value (NCI-H2009, RMC-7977 10 mg/kg po qd, day 24 on study, individual animals, 10 mg/kg) was 4.35% and -1.89% and -3.20% and 0.00% (3×) and -1.79% and -3.06% and -0.85% and -4.45% and the “% Body Weight Change” value (NCI-H2009, RMC-7977 10 mg/kg po qd, day 28 on study, individual animals, 10 mg/kg) was 0.97% and 0.00% (2×) and 1.34% and -1.34% and -1.75% and 1.82% and 0.90% and 2.56% and -6.88%. For the same compound, the “% Body Weight Change” value (PDAC G12D tumor bearing BALB/c nude mice, 10 mg/kg po qd, day 28, individual animals, 10 mg/kg) was 0.00% (2×) and 4.17% and 17.39%, the “% Body Weight Change” value (PSN-1 tumor bearing BALB/c nude mice, 10 mg/kg po qd, day 0, individual animals) was 0% and the “% Body Weight Change” value (PSN-1 tumor bearing BALB/c nude mice, 10 mg/kg po qd, day 3, individual animals, 10 mg/kg) was -2.37% and -0.9302% and 5.43% and 6.03% and 0.5102%. For the same compound, the “% Body Weight Change” value (PSN-1 tumor bearing BALB/c nude mice, 10 mg/kg po qd, day 7, individual animals, 10 mg/kg) was -1.4218% and -1.395% and 3.167% and 6.03% and 1.531%, the “% Body Weight Change” value (PSN-1 tumor bearing BALB/c nude mice, 10 mg/kg po qd, day 10, individual animals, 10 mg/kg) was -4.2654% and -2.7907% and 2.715% and 4.523% and -1.531% and the “% Body Weight Change” value (model named above the shown rows, RMC-7977 10 mg/kg po qd, day 0 on study, individual animals) was 0%. The “% Body Weight Change” value (model named above the shown rows, RMC-7977 10 mg/kg po qd, day 2 on study, individual animals, 10 mg/kg) was 0% (3×) and -0.939% and 4.369% and -0.9302% and -1.887% and 0.9569%.
